The nature of this data set: general procedure: solution-phase peptide synthesis; HATU/DIEA (EDC/HOBt for Int-5b).

Strings that start with PEPTIDE1 are HELM notation: dots part the residues, brackets hold end groups and non-standard residues.

The substance tetra Boc PMBH-Gly-Thr-Dab displayed a step yield (coupling step) of 76.6%.

For “PEPTIDE1{[PrgPEG4].[Dab].[AHNA].[aza-Gly].[Dab].[Dab].[D-Cha].L.[Dab].[Dab].T}$PEPTIDE1,PEPTIDE1,5:R3-11:R2$$$V2.0”, the step yield (late stage modification step) came to 53.2%.

Tri-Boc-PMBH-[(γ-Boc)-Aza-Dab] displayed a step yield (late stage modification step, over three steps) of 44% yield over three steps.

In turn, Tri-Boc-PMBH-[(γ-Boc)-Aza-Dab]-[Z-Thr] came in with a step yield (coupling step) of 44%.

In turn, “Tri-Boc-PMBH-[(γ-Boc)-aza-Dab]-Thr-[(γ-Boc)-Dab]-[Z-((S)-Hexyl)-Gly]” displayed a step yield (coupling step) of 61%.

In the case of Penta-Boc-PMB-Decapeptide, the step yield (coupling step, two steps) was found to be 94%.

As for Tri-Boc Polymyxin B Cycloheptapeptide, where the note is “late stage modification step”, the step yield is given as 65.0%.

With “Boc-PMBH-[(γ-Boc)-aza-Dab]-Thr-[(γ-Boc)-Dab]-[((S)-hexyl)-Gly]-[Propargyl-PEG4-Acyl]”, the conjugation yield (conjugation step) is reported as 86%.

For the setting “late stage modification step”, PMBH-AzaGly-NH2 displayed a step yield of 98.4%.

Values taken from US20230165970A1 (priority 2017, published 2023).
